No constants are given. Whether binding was seen depends on the method and setting. Binding seen in cells or lysates may run through a third protein. A result given as binding can be weak or reduced; the word gives no strength. Tags and fused reporters may be left off the sequences shown. Each block holds one binder with its values, some of them ahead of it.
How the values were obtained:
His-AtCTD (Arabidopsis) [1] = assay: pull-down; His-AtCTD incubated with a GST fusion protein, pulled down using anti-His antibody and magnetic beads; GST fusions detected with anti-GST antibody
AtCTD-NLUC (Arabidopsis) [2] = assay: split reporter; Split-LUC competition in N. benthamiana leaves: MTA and CTD fusions with increasing ALKBH10B
AtCTD-NLUC (Arabidopsis) [3] = assay: split reporter; Split-LUC imaging; CLUC and NLUC fusions co-infiltrated by Agrobacterium GV3101 into N. benthamiana leaves; 500 uM luciferin, dark for 5 min
AtCTD-NLUC (Arabidopsis) [4] = assay: split reporter; Split-LUC competition in N. benthamiana leaves: MTA and CTD fusions co-infiltrated with varying amounts of SET or empty vector
His-AtCTD (Arabidopsis) [5] = assay: pull-down; competition: His-AtCTD with a fixed concentration of GST-AtMTA and increasing concentrations of GST-AtSET (or 1x of each added); detected with anti-GST antibody

- binding (His-AtCTD (Arabidopsis) [1]): binds
B1: GST-AtALKBH10B (enzyme, UniProt Q9ZT92 1-569)
chain: MTIAAAPARQTDRSATGFNPAYVTTAKAVSVPVQVPPATVVSEGLGKDALISWFRGEFAAANAIIDAMCSHLRIAEEAVSGSEYEAVFAAIHRRRLNWIPVLQMQKYHSIAEVAIELQKVAAKKAEDLKQKKTEEEAEEDLKEVVATEEEEVKKECFNGEKVTENDVNGDVEDVEDDSPTSDITDSGSHQDVHQTVVADTAHQIICHSHEDCDARSCEIKPIKGFQAKEQVKGHTVNVVKGLKLYEELLKEDEISKLLDFVAELREAGINGKLAGESFILFNKQIKGNKRELIQLGVPIFGHVKADENSNDTNNSVNIEPIPPLLESVIDHFVTWRLIPEYKRPNGCVINFFEEGEYSQPFLKPPHLEQPISTLVLSESTMAYGRILSSDNEGNFRGPLTLSLKQGSLLVMRGNSADMARHVMCPSQNKRVSITFFRIRPDTYHNHSQPNSPRNDGVMTMWQPYQMTPTPFLNGYDHSIDMMPKLGVLRPPMVMMAPPPVQPMILPSPNVMGTGGGTGVFLPWASVNSSRKHVKHLPPRAQKKRLLPLPPAASSSPAGGSTSEPVITVG

- binding (AtCTD-NLUC (Arabidopsis) [2]): binds
B2: AtALKBH10B (third construct co-infiltrated as competitor in Split-LUC) (enzyme, UniProt Q9ZT92 1-569)
chain: B1 chain

- binding (AtCTD-NLUC (Arabidopsis) [3]): binds
B3: AtALKBH10B (Split-LUC fusion) (enzyme, UniProt Q9ZT92 1-569)
chain: B1 chain

- binding (AtCTD-NLUC (Arabidopsis) [3]): binds
B4: AtSET-CLUC (domain or fragment, UniProt Q9C5X4 898-1016)
chain: KRLAFGKSGIHGFGIFAKLPHRAGDMMIEYTGELVRPSIADKREQLIYNSMVGAGTYMFRIDDERVIDATRTGSIAHLINHSCVPNCYSRVITVNGDEHIIIFAKRHIPKWEELTYDYR

- binding (AtCTD-NLUC (Arabidopsis) [4]): binds
B5: AtSET (third construct co-infiltrated as competitor in Split-LUC) (domain or fragment, UniProt Q9C5X4 898-1016)
chain: B4 chain

- binding (His-AtCTD (Arabidopsis) [1]): binds
- binding (His-AtCTD (Arabidopsis) [5]): binds
B6: GST-AtSET (domain or fragment, UniProt Q9C5X4 898-1016)
chain: B4 chain
